In PubChem BioAssay AID2685 (National Center for Advancing Translational Sciences (NCATS), 2010):
The whole screen tested about 320,000 compounds, of which about 2,100 (0.66%) were called active. Inconclusive results, whose numbers are uncertain, are shown with a selection of clear calls. Calls follow the shape of the dose curve; as a rule, active = well fitted inhibition curve with a large enough effect in the signal ratio, with a control signal flat (not every such curve was filed as active); inconclusive = small, poorly fitted or top-dose-only effect, or effect the other way, or a change in a side signal; inactive = flat fitted curve, though single readings scatter; the % refers to the signal ratio. A potency beside an inconclusive call is a rough fit, not a confirmed value.

Experiment: qHTS Assay for Lipid Storage Modulators in Drosophila S3 Cells
Conditions: BODIPY lipid droplet fluorescence, 18-24 h, cells fed with added oleic acid; lipid storage change, negative = inhibition: at 46.1 µM (top of the series) unless noted
Outline: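 Laser-scanning cytometry quantifies lipid droplet accumulation (500–530 nm total intensity; droplet/cell object ratio) in oleic acid-fed (400 uM added) Drosophila S3 cells treated with a concentration series. 20 uM Triacsin C defined 100% inhibition.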
% is scaled to controls: 0 for no effect and ±100 for the full control effect; potency is read from the fitted curve at half-maximal effect.

Lipid storage change, negative = inhibition, inactive:
CCOc1ncccc1-c1nc(-c2cccs2)no1
CC(C)c1c(C(=O)N/N=C/c2ccccc2OCc2c(F)cccc2Cl)nnn1-c1nonc1N

Lipid storage change, negative = inhibition, inconclusive:
Cc1ccc(C)c(SCC(=O)Nc2cc(S(=O)(=O)N3CCOCC3)ccc2C)c1
COc1cc(SC)ccc1C(=O)OCC(=O)NC1CCCCC1 -10.9%
CCn1c(Sc2nc(C)nc3scc(-c4cccs4)c23)n[nH]c1=O 33.8%
CCN(CC)CCCNC(=S)N1CCN(c2nc(-c3ccc(F)cc3)cs2)CC1 -62.9%
COc1cc(/C=C/c2cc(C(=O)O)c3ccccc3n2)cc(OC)c1O 173%
c1ccc(Cc2nn3c(COc4ccccc4)nnc3s2)cc1 37.1%
O=C(c1ccc(-c2nnc(-c3ccccc3)o2)cc1)N1CCCCCC1 11.3%
Cc1ccc(C)c(/C=N/Nc2ccccn2)c1 -2.68%
CCc1nnc(NC(=O)CCC(=O)N2CCN(C3CCCCC3)CC2)s1 -32.5%
CCNC(=S)N=Nc1c(O)[nH]c2ccc(C(C)C)cc12 23.8%
COc1cccc(C(=O)NCCS(=O)(=O)NC(C)CCc2ccccc2)c1 (configuration not stated) 39.3%
O=C(NC(Cc1ccc(F)cc1)C(=O)O)c1ccccc1 (configuration not stated) -28.5%
CCN(CC)S(=O)(=O)c1ccc(C)c(C(=O)Oc2cccc(-c3cnc4ccccc4n3)c2)c1 15%

Three structures from above, arranged by count of non-hydrogen atoms, low to high:
Lipid storage change, negative = inhibition, inconclusive:
c1ccc(Cc2nn3c(COc4ccccc4)nnc3s2)cc1 37.1%
COc1cccc(C(=O)NCCS(=O)(=O)NC(C)CCc2ccccc2)c1 (configuration not stated) 39.3%
Cc1ccc(C)c(SCC(=O)Nc2cc(S(=O)(=O)N3CCOCC3)ccc2C)c1

Next part:

Potency, inconclusive:
CS(=O)(=O)c1ccc(NCCc2ccc(S(N)(=O)=O)cc2)c([N+](=O)[O-])c1 6.51 µM [activator, single point]
CCCCCn1c(SCC(=O)OCC)nc2cc(C(=O)NCc3ccco3)ccc2c1=O 4.61 µM [falling, full curve, poor fit]
N#Cc1cccc(N=Cc2c(O)ccc3ccccc23)c1 32.6 µM [activator, single point]
Cc1ccc(NC(=O)C2CCCN2S(=O)(=O)c2cccc3cccnc23)cc1F (configuration not stated) 14.6 µM [activator, partial curve, poor fit]
CO/N=C\C(=N\Nc1ccc(OC)cc1)C(=O)c1ccccc1 0.92 µM [rising, partial curve]
COc1ccccc1C(=O)NN1C(=O)C2C3C=CC(O3)C2C1=O (configuration not stated) 14.6 µM [activator, partial curve]

Potency, active:
Cc1ccc(S(=O)(=O)N2CCC(C(=O)OCC(=O)N3CCc4ccccc43)CC2)cc1 7.31 µM
